Source: the supplement of paper PMC10849652
This is one part of the list.

The chains behind the UniProt entries cited, without tags or fusion partners. Where a name states a change or a piece, a line headed by the entry shows the natural chain unless it says otherwise.
UniProt Q96MT8: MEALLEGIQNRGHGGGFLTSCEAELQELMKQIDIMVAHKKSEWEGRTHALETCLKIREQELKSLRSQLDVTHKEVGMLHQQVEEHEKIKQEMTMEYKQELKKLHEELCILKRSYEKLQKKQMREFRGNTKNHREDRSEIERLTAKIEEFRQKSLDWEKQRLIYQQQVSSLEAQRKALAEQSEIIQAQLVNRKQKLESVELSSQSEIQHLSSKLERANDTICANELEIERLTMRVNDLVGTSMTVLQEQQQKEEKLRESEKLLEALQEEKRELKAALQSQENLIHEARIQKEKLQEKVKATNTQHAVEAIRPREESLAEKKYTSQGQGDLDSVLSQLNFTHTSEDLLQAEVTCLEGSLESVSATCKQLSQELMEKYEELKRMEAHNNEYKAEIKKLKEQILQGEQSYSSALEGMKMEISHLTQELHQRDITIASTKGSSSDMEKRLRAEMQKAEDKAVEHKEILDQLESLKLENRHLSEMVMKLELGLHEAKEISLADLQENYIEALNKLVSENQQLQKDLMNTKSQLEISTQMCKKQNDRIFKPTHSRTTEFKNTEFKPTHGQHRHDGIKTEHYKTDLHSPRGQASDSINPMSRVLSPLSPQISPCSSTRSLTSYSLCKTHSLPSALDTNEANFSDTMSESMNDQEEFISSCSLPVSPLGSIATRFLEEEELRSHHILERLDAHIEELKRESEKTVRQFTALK
UniProt Q9BYV8: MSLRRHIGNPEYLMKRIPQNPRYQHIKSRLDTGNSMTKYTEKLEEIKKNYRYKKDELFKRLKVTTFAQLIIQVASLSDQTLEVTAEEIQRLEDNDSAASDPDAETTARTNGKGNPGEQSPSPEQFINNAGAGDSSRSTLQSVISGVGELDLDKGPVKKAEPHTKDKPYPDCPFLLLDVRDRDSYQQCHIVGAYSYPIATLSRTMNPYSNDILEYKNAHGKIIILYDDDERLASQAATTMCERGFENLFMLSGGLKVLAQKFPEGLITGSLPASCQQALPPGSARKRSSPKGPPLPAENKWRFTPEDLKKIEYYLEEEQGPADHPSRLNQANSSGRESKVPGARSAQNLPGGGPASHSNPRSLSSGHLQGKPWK
UniProt Q9Y592: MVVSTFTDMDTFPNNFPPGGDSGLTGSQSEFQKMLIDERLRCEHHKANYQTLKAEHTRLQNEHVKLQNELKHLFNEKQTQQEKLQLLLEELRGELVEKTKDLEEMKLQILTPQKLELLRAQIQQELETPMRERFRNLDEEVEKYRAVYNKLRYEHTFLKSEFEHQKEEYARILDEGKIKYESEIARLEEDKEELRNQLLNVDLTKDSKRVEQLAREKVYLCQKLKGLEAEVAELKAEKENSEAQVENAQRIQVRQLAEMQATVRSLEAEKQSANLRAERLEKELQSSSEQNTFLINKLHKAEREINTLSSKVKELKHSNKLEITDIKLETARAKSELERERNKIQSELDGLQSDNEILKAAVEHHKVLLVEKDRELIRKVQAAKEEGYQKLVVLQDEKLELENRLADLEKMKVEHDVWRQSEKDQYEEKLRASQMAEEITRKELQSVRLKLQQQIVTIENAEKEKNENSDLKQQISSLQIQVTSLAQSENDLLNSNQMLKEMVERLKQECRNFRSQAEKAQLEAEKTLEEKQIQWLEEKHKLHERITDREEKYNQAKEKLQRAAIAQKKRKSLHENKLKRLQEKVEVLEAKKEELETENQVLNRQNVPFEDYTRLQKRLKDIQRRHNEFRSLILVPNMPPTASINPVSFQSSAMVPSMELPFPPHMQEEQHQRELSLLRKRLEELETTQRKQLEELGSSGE
UniProt Q6IPU0: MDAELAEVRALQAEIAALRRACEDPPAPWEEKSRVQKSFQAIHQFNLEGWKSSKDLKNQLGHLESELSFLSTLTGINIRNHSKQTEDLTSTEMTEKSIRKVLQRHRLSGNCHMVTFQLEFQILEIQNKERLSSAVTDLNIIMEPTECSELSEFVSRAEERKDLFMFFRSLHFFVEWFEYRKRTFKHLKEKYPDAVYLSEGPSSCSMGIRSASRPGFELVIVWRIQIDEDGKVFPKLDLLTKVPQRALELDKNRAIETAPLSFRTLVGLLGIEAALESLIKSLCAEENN

What was measured:
Test in all cases: log2 fold change, soluble protein after heating vs DMSO (PISA); higher = thermal stabilisation; K562 lysate, 10 uM; active = over 0.2 and 3.5 SD of the protein, either way, in both replicates (recomputed)
erlotinib = compound: C#Cc1cccc(Nc2ncnc3cc(OCCOC)c(OCCOC)cc23)c1 [erlotinib]
Summary of the method: (§1)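 K562 pellets were dounce-homogenised in PBS pH 7.4 with 1 mM MgCl2, and the crude extract at 1 mg/mL protein was treated with 10 μM compound for 30 min. Aliquots were heated for 3 min across 48°C-58°C, pooled, and brought to 0.5% NP-40 at 4°C; soluble protein was the supernatant after 21,000xg for 90 min. Soluble protein was quantified by TMTpro 16plex LC-MS/MS with channel sums equalised, and reported as log2 fold change in thermal stability against DMSO controls, with values from duplicates.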

[1] = compound: C1=CC(=CC=C1C2=NC3=C(N2)C=C(C=C3)C(=O)N)OC4=CC=C(C=C4)Cl
Summary of the method: as §1

[2] = compound: C1CCN(C1)C(=O)NC2=CC=CC(=C2)NC3=NC=C(C(=N3)NCCC4=CN=CN4)Br
Summary of the method: as §1

[3] = compound: C1CN(CCC1(CC2=CC=C(C=C2)Cl)N)C3=NC=NC4=C3C=CN4
Summary of the method: as §1

[4] = compound: CC(=O)c1cnc2ccc(-c3cc(Cl)c(O)c(Cl)c3)nc2c1N[C@H]1CC[C@H](CN(C)C)CC1
Summary of the method: as §1

[5] = compound: CC(C)C1=C2N=C(C=C(N2N=C1)NCC3=CC=CC=C3)NCCCCCCN
Summary of the method: as §1

[6] = compound: CC1=C(C(CC(=O)N1)C2=CC=C(C=C2)C(F)(F)F)C(=O)NC3=C(C=C4C(=C3)C=NN4)F
Summary of the method: as §1

[7] = compound: CC1=C(C2=C(C=C1)C(=O)C3=CC=CC=C3N2CCCN)C
Summary of the method: as §1

[8] = compound: CC1=CC=C(C=C1)SC2=C3C=C(SC3=CN=C2)C(=O)N
Summary of the method: as §1

[9] = compound: C/C(=N\NC(=O)C1=CC(=CC=C1)S(=O)(=O)N2CCOCC2)/C3=C(C=CC(=C3)Cl)O
Summary of the method: as §1

[10] = compound: C1=CC2=C(C=CC(=C2)/C=C\3/C(=O)NC(=NCC4=CC=CS4)S3)N=C1
Summary of the method: as §1

[11] = compound: C1=CC2=NC=CN=C2C=C1/C=C/3\C(=O)NC(=O)S3
Summary of the method: as §1

[12] = compound: C1=CC=C2C(=C1)C3=NNC4=CC=CC(=C43)C2=O
Summary of the method: as §1

ibrutinib = compound: C=CC(=O)N1CCC[C@@H](n2nc(-c3ccc(Oc4ccccc4)cc3)c3c(N)ncnc32)C1 [ibrutinib]
Summary of the method: as §1

[13] = compound: CC1=C(C=C(C=C1)NC(=O)C2=CC(=CC=C2)C(C)(C)C#N)NC3=CC4=C(C=C3)N=CN(C4=O)C
Summary of the method: as §1

[14] = compound: C1=CC=C(C=C1)C2=NC(=C(N2)C3=CC=NC=C3)C4=CC(=C(C=C4)Cl)O
Summary of the method: as §1

IRAK-1-4 Inhibitor I = compound: C1COCCN1CCN2C3=CC=CC=C3N=C2NC(=O)C4=CC(=CC=C4)[N+](=O)[O-] [IRAK-1-4 Inhibitor I]
Summary of the method: as §1

ralimetinib = compound: CC(C)(C)Cn1c(N)nc2ccc(-c3[nH]c(C(C)(C)C)nc3-c3ccc(F)cc3)nc21 [ralimetinib]
Summary of the method: as §1

[15] = compound: CC(C)(O)CC(=O)NCCn1ccc2ncnc(Nc3ccc(Oc4cccc(C(F)(F)F)c4)c(Cl)c3)c21
Summary of the method: as §1

[16] = compound: CC1=C(C=C(C=C1)NC(=O)C2=CC(=CC=C2)N(C)C)NC(=O)C3=CC=C(C=C3)O
Summary of the method: as §1

Measured: log2 fold change

CEP63 (UniProt Q96MT8)
inactive: erlotinib 0.263 | [1] 0.221 | [2] 0.013 | [3] -0.013 | [4] -0.047 | [5] 0.18 | [6] -0.084 | [7] 0.053 | [8] 0.011

CEP41 (UniProt Q9BYV8)
inactive: erlotinib -0.068 | [9] -0.125 | [1] 0.006 | [10] -0.007 | [11] 0.016 | [12] 0.019 | [2] -0.035 | [3] 0.03 | ibrutinib 0.014 | [4] 0.045 | [5] 0.021 | [6] -0.025 | [7] 0.095 | [13] 0.011 | [8] -0.031

CEP83 (UniProt Q9Y592)
inactive: erlotinib 0.092 | [9] -0.025 | [1] 0.206 | [10] -0.048 | [14] 0.049 | [12] -0.201 | IRAK-1-4 Inhibitor I 0.086 | [4] -0.054 | ralimetinib 0.029 | [15] -0.087 | [5] 0.04 | [6] 0.112 | [13] 0.037 | [16] -0.036 | [8] -0.033

CENPP (UniProt Q6IPU0)
inactive: erlotinib -0.007 | [9] -0.085 | [1] -0.148 | [10] -0.121 | [14] -0.011 | [12] 0.025 | [2] -0.039 | [3] -0.007 | IRAK-1-4 Inhibitor I 0.066 | [4] 0.009 | ralimetinib 0 | [15] -0.002 | [5] -0.041 | [6] 0.168 | [7] -0.098 | [13] 0 | [16] -0.003 | [8] -0.037
